For the experiment, the target named is GluR1 carboxy‐terminal region (SPR). The experiment is described as follows: SPR; full-length CIRP protein and the GluR1 carboxy-terminal region; who was immobilised and the conditions not given; both purified.

Results are given in words; binding and its absence hold for the method and conditions named. A result given as binding can be weak or reduced; the word gives no strength.

B1: full‐length CIRP protein (SPR) (natural protein)
chain: MASDEGKLFVGGLSFDTNEQALEQVFSKYGQISEVVVVKDRETQRSRGFGFVTFENIDDAKDAMMAMNGKSVDGRQIRVDQAGKSSDNRSRGYRGGSAGGRGFFRGGRSRGRGFSRGGGDRGYGGGRFESRSGGYGGSRDYYASRSQGGSYGYRSSGGSYRDSYDSYATHNE
Turning to B1, the binding entry is listed as “binds”.
